These are yes or no findings as the source states them, for the method shown. A result given as binding can be weak or reduced; the word gives no strength.

Protein sequences, listed by entry. Tags and fused reporters are not part of them. Residues count along the entry.
UniProt P61586, residues 1-181: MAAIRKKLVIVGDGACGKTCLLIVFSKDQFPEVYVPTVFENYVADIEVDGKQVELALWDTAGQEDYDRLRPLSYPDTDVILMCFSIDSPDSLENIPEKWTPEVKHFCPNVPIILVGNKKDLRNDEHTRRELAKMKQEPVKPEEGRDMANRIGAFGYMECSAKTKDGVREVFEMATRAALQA

The target of this assay is RhoA (residues 1-181) bound to GTPγS (UniProt P61586). Description: crystal structure; p114-PH·RhoA·GTPγS complex; vapor diffusion at 20 °C; 22–24% PEG 3350, 100 mM Bis-Tris pH 5.8–6.1, 200 mM ammonium sulfate; 1.4 Å; both purified.

In the case of “PH domain from mouse p114RhoGEF (residues 302-444) (from UniProt Q6P9R4-1) (domain or fragment)”, the binding entry is on record as “binds”.

The values are drawn from publication PMC5988292.
